At least one structure is not confirmed: it was looked up by name or label, or the drawing left a doubt.
How the values were obtained:
[1] = molecular target: NF-κB (Homo sapiens, UniProt P19838+Q04206); assay: NF-κB activity ELISA (TransBinding NF-κB assay kit), BxPC-3 cells; assay type: cell-based; design: endogenous in cells; host or cells: BxPC-3; settings: 3 h
Description: NF-κB activity was measured in these cells using the TransBinding NF-κB assay kit and following the instructions of the manufacturer (Panomics). Briefly, nuclear extracts obtained as described above, were incubated for 30 min in an ELISA plate coated with NF-κB consensus DNA sequence to which p50 protein can bind. After binding, antibody against p50 was added and incubated for 1 hour, followed by HRP-conjugated antibody for 1 hour. Afterwards, luminol/enhancer solution and stable peroxide solution were added and chemoluminescence was detected using a luminometer (Bio-Rad).

By UniProt entry, the sequences of proteins in these tests, tags left out. Residues count along the entry.
UniProt P19838, 1-433 limits assumed: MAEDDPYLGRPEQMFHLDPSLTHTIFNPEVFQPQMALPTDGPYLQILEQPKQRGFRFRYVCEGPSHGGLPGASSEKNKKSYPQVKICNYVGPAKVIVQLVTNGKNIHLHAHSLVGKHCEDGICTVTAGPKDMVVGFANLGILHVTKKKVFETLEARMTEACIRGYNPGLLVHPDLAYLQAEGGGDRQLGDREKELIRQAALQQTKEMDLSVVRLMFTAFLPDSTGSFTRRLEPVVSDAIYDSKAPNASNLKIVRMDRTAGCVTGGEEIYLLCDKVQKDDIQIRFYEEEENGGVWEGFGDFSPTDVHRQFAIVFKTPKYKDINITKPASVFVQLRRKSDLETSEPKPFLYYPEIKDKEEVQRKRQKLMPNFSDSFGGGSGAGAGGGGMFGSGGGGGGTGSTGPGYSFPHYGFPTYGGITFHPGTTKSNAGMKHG
UniProt Q04206, whole entry: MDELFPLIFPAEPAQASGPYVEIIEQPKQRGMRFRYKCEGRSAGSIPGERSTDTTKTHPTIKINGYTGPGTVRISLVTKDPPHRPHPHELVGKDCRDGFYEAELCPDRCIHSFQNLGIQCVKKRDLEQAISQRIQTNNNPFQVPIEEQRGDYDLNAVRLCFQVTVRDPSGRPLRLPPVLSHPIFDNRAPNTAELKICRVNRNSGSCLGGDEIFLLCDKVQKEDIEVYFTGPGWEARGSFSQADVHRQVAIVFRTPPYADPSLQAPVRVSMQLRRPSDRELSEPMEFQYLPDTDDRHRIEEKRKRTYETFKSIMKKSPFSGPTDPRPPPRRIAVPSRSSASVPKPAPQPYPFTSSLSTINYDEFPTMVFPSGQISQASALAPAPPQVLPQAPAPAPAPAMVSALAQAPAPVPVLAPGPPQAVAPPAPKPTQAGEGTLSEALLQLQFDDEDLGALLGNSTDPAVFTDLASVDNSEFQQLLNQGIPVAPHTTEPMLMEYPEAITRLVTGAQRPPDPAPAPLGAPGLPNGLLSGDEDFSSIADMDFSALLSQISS

[2] = test system: NF-κB p65; assay: Confocal microscopy co-localization of annexin 1 and p65, BxPC-3 cells; assay type: cell-based, human; settings: 3 h, NO-ASA 20 μM or Dex 4 μM
Description: BxPC-3 cells were seeded on cover-glasses in a 12-well plate for 24 h. The cells were exposed to 10 or 20 μM NO-ASA or 2 or 4 μM Dex for 3 h, fixed with 4% paraformaldehyde in PBS containing 30 mM sucrose, permeabilized with 0.2% saponin in PBS containing 30 mM sucrose, and blocked with 5% normal goat serum in PBS containing 1% BSA. The cells were incubated with mouse monoclonal IgG2b anti-annexin 1 (Santa Cruz Biotechnology) and rabbit monoclonal IgG anti-p65 (Cell Signaling, MA) at RT for 1 h. After three washes with PBS containing 1% BSA, the cells were incubated with Alexa555 conjugated donkey anti-mouse IgG (Molecular Probes) and Alexa 488 conjugated goat anti-rabbit IgG (Molecular Probes) at RT for an hour. Images were acquired with a Zeiss LSM 510 META NLO Two-Photon Laser Scanning Image Confocal Microscope and the colocalization scores were generated by the Colocalization Macro program. The control experiments were performed using non-specific mouse IgG2b and/or rabbit IgG. Red fluorescence localized annexin 1, green fluorescence localized p65 (NF-κB) and co-localization of the two proteins generated yellow fluorescence.

[3] = test system: NF-κB; assay: NF-κB activity in treated Min and wild-type mice; assay type: in vivo; settings: NO-ASA 100 mg/kg or Dex 10 mg/kg daily for 7 days
Description: (§1) To assess whether these changes occur in vivo, the inventors studied isolated small intestine epithelial cells from Min mice and the corresponding wild type mice C57BL/6J (of which the Min mice are a congenic derivative) treated with NO-ASA 100 mg/kg or Dex 10 mg/kg daily for 7 days. Min (multiple intestinal neoplasia), a mutant allele of the murine APC (adenomatous polyposis coli) locus, encodes a nonsense mutation at codon 850. Heterozygous Min mutants spontaneously develop tumors in the intestine and represent a model of intestinal carcinogenesis (M. Lipkin et al., Ann. N.Y. Acad. Sci. 889:14-19 (1999); A. Moser, H. Pitot, W. Dove, Science 247:322-324 (1990)). The levels of annexin 1 were increased in both Min and wild-type mice treated with either NO-ASA or Dex (FIG. 7A and FIG. 8A). The induction of annexin 1 by NO-ASA or Dex was accompanied by the inhibition of NF-κB activity (FIGS. 7B and 8B).
(§2) A mouse model of multiple intestinal neoplasia, the Min mice, and the congenic parent wild-type mice were used to test the in vivo action of NO-ASA in the induction of annexin 1. Both wild-type and Min mice were treated for 7 days with vehicle or NO-ASA 100 mg/kg. After 7 days of treatment, the mice were sacrificed and the epithelial cells were evaluated as in Example 6 by confocal microscopy.

[4] = test system: NF-κB p65; assay: Co-immunoprecipitation of annexin 1 with p65, HT-29 cells; assay type: cell-based, human; settings: 3 h, NO-ASA 20 μM or Dex 4 μM
Description: (§3) The gel shift assays were carried out according to the manufacturer's protocol (Panomics). Nuclear proteins (10 μg) from each sample were mixed with 10 ng biotinylated p65 double-stranded oligonucleotide probes (5′-[…]-3′ and its complement) (SEQ ID NO:9) in the presence of 1 μg Poly(I/C) DNA. The mixture was incubated at room temperature for 30 min. The binding complex was then resolved using a 6% polyacrylamide/glycerol gel in 0.5% Tris-borate-EDTA, transferred onto a nylon membrane, and fixed on the membrane by UV cross-linking The biotin-labeled probe was detected with streptavidin-horseradish peroxidase. Co-immunoprecipitation was performed as follows: about 500 μg of cell extracts were incubated overnight with 5 μg of agarose-conjugated anti-p65 (Santa Cruz Biotechnology) or anti-annexin 1 antibody (Santa Cruz, Calif.). The precipitate was washed five times with washing buffer (Santa Cruz Biotechnology), dissolved in 2× Laemmli buffer, boiled, and separated by SDS-PAGE and detected by Western blot analysis using ECL™ (Amersham Biosciences) as described above. Control experiments were performed by using rabbit IgG for p65 and mouse IgG2b for annexin 1, respectively (Santa Cruz Biotechnology).

[5] = test system: Bcl-xL; assay: NF-κB dependent gene (Bcl-xL) expression in epithelial cells of treated mice; assay type: in vivo; settings: wild-type and Min mice
Description: as §1

[6] = cortisol=1; cited from earlier work
[7] = test system: annexin 1; assay: Induction of annexin 1 in BxPC-3 cells, Western blot of nuclear and cytoplasmic extracts; assay type: cell-based, human
Description: The human pancreatic cancer cell line, BxPC-3, or the colon cancer cell line HT-29, both from ATCC (Manassas, Va.) were maintained and grown in RPMI 1640 or McCoy's 5A medium (Cellgro) supplemented with 10% fetal bovine serum (HyClone) and 1% penicillin/streptomycin (Cellgro) in a humidified incubator at 37° C. and 5% CO2.
The cell fractions were obtained as described by Andrews and Faller (N. C. Andrews and D. V. Faller, Nucleic Acids Res. 19:2499 (1991)) with modification. Briefly, the cells were pelleted after treatment and washed three times with PBS. The cell pellets were resuspended in ice cold buffer A (10 mM HEPES, pH 7.9, 10 mM KCl, 1.5 mM MgCI2, 0.5 mM DTT, 0.5 mM PMSF) with protease inhibitor cocktail (Sigma) and incubated on ice for 15 min with occasional mixing by gently tapping the tube. The cell lysates were centrifuged up to 5000 rpm for three times. The supernatants were collected as cytoplasmic extracts. Nuclear pellets were washed with buffer A and resuspended in buffer C (20 mM HEPES, pH 7.9, 450 mM NaCl, 1.5 mM MgCI2, 0.2 mM EDTA, 0.5 mM DTT, 0.5 mM PMSF, 25% Glycerol) with protease inhibitor cocktail (Sigma) and incubated on ice for 30 min with occasional mixing to extract nuclear proteins. Nuclear extracts were cleared by centrifugation (14,800 rpm for 10 min) and the supernatants were collected as nuclear extracts. […]

[8] = test system: HT-29 cells; assay: Apoptosis, Cell Death Detection ELISA, HT-29 cells; assay type: cell-based, human
Description: Apoptosis was determined using the Cell Death Detection ELISA^PLUS assay kit according to the manufacturer's protocol (Roche, Indianapolis, Ind.). Briefly, the cells were treated with either NO-ASA or Dex for 3 h. Cells were harvested and washed three times with PBS. The cell pellet was resuspended with lysis buffer and incubated for 30 min at RT. Cell […] at 200×g for 10 min. The ELISA assay was performed using 20 μl cell lysate and 80 μl Immunoreagent (containing 72 μl Incubation Buffer, 4 μl Anti-histone-biotin Solution, and 4 μl Anti-DNA-POD Solution) per micro-plate well. The micro-plate was covered with an adhesive foil and incubated on a shaker under gentle shaking at 200 rpm for 2 h at RT. The solution in each well was removed thoroughly by tapping and the pellets were rinsed three times with 200 μl Incubation Buffer. […] The absorbance was measured at 405 nm using the SpectraMax micro-plate reader (Molecular Devices, Sunnyvale).
Briefly, annexin 1 cDNA clones (OreGen) or the PCMV6XL5 vector, as a negative control, were transiently transfected into BxPC-3 cells grown to 40-60% confluency using Lipofectamine according to the product protocol (Invitrogen). […] NF-κB activity was subsequently measured by the TransBinding NF-κB Assay Kit and ELISA as described in Example 2. […]

[9] = test system: NF-κB p65; assay: Co-immunoprecipitation of annexin 1 with p65, BxPC-3 cells; assay type: cell-based, human; settings: 3 h, NO-ASA 20 μM or Dex 4 μM
Description: as §3

[10] = test system: NF-κB; assay: NF-κB activity ELISA, HT-29 cells; assay type: cell-based, human; settings: 3 h
[11] = test system: annexin 1; assay: Annexin 1 levels in small intestine epithelial cells of treated Min and wild-type mice; assay type: in vivo; settings: NO-ASA 100 mg/kg or Dex 10 mg/kg daily for 7 days
Description: as §1, §2

SMILES | NF-κB activity [1] | co-localization of annexin 1 and p65 [2] | NF-κB activity ([3]; Min mice) | NF-κB activity ([3]; wild-type mice) | co-immunoprecipitation of annexin 1 with p65 [4] | NF-κB dependent gene expression (Bcl-xL) [5] | relative anti-inflammatory potency [6] | expression of annexin 1 [7] | induced cell apoptosis after knock-down of annexin 1 by specific siRNA ([8]; HT-29 cells (FIG. 3D)) | cell apoptosis ([8]; HT-29 cells, 3 h) | co-immunoprecipitation of annexin 1 with p65 [9] | NF-κB activity [10] | levels of annexin 1 ([11]; Min mice) | levels of annexin 1 ([11]; wild-type mice)
C[C@@H]1C[C@H]2[C@@H]3CCC4=CC(=O)C=C[C@]4(C)[C@@]3(F)[C@@H](O)C[C@]2(C)[C@@]1(O)C(=O)CO [Dex, dexamethasone] | inhibited NF-κB activity in a concentration-dependent manner | also appeared in the nucleus | inhibited NF-κB activity | inhibited NF-κB activity | co-immunoprecipitated with p65 | inhibited NF-κB dependent gene expression | 25 | also induced annexin 1 | completely abrogated | induced | co-immunoprecipitated with p65 | inhibited NF-κB activity in a concentration-dependent manner | increased | increased
C[C@H]1C[C@H]2[C@@H]3CCC4=CC(=O)C=C[C@]4(C)[C@@]3(F)[C@@H](O)C[C@]2(C)[C@@]1(O)C(=O)CO [betamethasone] | – | – | – | – | – | – | 25 | – | – | – | – | – | – | –

From patent US8691764B2, “Inhibitors of NF-κB activity” (The Research Foundation for the State University of New York, priority 2007, dated 2014)
